Measurements reported in article PMC10371147.
Results are given in words; binding and its absence hold for the method and conditions named. In cells and extracts the contact can be indirect. Some entries that bind do so weakly or less than the wild type. For part of these data: Where a sequence is shown, tags or fusion partners need not be part of it.

Chains of the proteins cited; added tags and fusions are not shown. Residues count along the entry.
UniProt Q99PJ1, residues 27-1943: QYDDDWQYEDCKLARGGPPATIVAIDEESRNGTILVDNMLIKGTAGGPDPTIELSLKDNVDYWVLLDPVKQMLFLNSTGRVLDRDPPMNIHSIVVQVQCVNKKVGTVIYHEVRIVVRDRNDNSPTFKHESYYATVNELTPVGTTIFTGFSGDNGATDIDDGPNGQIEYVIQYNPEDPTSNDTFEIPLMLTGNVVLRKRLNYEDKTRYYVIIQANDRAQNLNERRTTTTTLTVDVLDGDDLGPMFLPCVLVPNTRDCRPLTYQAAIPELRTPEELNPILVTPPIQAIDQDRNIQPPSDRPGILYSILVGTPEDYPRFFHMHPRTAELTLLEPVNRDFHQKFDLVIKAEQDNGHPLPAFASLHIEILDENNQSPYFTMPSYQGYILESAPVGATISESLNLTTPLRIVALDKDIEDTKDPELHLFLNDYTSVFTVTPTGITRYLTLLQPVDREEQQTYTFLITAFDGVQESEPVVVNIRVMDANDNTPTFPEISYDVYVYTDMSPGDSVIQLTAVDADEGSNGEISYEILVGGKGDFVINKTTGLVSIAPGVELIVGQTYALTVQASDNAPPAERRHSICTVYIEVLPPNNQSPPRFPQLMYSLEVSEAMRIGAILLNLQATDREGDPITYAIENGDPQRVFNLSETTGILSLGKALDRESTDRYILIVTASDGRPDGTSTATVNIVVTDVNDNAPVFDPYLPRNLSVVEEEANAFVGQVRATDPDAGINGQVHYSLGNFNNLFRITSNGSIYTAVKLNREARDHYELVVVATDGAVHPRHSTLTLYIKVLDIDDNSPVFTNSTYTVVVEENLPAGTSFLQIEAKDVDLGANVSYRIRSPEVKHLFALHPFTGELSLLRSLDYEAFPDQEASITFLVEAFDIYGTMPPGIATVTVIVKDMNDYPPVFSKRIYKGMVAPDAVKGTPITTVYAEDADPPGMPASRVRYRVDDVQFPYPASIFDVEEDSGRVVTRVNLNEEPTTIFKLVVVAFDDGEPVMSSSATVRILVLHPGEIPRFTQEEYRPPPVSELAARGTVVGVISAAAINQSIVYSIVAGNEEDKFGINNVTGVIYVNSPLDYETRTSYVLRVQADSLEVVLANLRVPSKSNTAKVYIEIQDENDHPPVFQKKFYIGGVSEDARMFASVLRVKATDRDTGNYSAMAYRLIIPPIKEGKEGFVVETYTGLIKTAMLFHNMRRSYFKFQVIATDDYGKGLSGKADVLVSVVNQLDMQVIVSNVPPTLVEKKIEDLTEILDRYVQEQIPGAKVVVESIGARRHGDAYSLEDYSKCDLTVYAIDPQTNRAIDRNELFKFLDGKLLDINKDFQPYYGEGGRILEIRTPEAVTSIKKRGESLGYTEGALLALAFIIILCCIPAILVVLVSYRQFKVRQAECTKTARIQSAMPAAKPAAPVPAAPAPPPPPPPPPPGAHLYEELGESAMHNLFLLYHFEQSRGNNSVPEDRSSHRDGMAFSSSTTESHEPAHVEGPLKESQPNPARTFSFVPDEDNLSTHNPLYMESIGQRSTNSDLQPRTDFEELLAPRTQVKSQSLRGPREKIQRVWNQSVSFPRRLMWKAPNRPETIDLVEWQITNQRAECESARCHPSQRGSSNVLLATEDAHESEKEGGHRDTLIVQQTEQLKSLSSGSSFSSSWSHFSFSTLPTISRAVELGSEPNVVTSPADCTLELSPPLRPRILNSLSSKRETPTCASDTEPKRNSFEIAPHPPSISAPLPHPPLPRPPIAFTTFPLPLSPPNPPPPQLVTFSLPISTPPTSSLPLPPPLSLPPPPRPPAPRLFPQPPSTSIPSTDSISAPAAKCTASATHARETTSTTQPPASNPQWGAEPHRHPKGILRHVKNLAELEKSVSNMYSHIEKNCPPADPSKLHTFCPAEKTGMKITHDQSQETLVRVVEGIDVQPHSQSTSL
UniProt E2JF22: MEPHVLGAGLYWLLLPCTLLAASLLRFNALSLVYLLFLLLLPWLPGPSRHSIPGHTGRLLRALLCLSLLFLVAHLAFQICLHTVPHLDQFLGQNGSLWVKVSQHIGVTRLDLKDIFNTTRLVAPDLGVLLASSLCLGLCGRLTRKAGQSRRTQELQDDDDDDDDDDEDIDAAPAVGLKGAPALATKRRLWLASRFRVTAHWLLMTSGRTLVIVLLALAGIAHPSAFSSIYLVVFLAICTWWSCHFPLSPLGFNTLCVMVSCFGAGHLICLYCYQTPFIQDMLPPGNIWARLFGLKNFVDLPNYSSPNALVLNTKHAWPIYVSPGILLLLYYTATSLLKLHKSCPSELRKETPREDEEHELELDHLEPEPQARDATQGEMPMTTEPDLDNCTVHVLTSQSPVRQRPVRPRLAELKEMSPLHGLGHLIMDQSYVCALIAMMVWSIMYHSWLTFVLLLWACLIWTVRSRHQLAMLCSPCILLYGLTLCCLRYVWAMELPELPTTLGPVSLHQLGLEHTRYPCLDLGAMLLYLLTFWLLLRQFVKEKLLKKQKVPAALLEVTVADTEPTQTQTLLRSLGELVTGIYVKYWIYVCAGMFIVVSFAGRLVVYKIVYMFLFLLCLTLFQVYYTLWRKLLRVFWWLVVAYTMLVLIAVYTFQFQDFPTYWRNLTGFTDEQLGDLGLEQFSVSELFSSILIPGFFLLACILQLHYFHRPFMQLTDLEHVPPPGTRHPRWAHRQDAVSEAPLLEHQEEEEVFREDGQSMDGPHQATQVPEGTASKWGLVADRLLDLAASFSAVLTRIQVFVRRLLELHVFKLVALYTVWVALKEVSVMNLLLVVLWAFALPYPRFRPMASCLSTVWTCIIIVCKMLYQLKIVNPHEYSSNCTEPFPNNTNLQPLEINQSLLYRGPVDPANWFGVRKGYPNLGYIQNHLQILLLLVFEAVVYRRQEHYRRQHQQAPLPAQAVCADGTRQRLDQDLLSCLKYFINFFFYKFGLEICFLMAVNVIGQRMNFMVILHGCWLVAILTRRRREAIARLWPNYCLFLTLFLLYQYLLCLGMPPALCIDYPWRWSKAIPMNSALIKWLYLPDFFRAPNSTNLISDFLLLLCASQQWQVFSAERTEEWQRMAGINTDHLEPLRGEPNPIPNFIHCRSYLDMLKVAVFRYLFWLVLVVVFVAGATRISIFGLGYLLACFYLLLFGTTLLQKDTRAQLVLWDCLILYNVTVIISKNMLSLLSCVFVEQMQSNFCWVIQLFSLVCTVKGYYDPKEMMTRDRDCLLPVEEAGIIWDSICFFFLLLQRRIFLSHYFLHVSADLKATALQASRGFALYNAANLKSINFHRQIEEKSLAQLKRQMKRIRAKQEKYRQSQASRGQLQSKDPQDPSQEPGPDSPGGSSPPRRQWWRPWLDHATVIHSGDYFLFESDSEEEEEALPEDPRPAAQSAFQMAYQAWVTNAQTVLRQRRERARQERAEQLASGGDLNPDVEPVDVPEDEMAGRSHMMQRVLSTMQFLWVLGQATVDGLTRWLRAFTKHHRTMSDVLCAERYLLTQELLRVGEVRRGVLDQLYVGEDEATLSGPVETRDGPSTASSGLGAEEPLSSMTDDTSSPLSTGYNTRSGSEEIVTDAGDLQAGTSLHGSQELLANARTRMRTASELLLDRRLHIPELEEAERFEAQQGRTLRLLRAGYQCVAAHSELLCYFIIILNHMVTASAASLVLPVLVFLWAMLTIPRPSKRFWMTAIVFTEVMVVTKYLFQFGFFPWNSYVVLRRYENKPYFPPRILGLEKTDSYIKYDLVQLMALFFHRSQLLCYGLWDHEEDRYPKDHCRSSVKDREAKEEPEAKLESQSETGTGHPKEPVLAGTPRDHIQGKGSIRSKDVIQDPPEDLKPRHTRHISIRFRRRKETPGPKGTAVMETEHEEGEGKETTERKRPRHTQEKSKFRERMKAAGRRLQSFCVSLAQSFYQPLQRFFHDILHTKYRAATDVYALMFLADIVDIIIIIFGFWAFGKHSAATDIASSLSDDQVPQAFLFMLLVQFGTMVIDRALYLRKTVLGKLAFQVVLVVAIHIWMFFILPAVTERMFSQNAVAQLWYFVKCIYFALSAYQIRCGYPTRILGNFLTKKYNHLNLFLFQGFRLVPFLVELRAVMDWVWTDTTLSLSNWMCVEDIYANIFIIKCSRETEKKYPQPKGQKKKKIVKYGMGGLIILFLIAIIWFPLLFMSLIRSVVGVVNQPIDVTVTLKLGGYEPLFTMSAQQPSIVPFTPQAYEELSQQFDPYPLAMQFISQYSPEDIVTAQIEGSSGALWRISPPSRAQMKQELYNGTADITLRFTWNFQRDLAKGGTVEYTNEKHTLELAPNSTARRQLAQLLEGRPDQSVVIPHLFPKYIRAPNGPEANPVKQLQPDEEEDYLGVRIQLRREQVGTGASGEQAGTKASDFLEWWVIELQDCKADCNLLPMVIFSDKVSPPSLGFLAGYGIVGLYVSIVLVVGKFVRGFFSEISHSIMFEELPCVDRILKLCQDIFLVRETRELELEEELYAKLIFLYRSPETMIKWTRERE

Key:
[1] = biological target: HA-tagged mouse Pcdh15 (mouse) (UniProt Q99PJ1); assay: co-IP; lysates of HEK 293 cells co-transfected with Pz1-FLAG and one tagged partner, harvested 48 h after transfection, antibody on Dynabeads Protein G, 20 min at RT, Western blot with antibodies to the tags
[2] = biological target: T1, His-tagged mouse Tmie (mouse) (UniProt Q8K467); assay: as above
T1 sequence: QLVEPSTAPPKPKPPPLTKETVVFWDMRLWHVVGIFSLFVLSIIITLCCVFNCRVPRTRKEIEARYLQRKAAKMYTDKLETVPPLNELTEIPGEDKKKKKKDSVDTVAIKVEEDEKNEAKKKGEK

[3] = biological target: T2, V5-tagged mouse Cib2 (mouse) (UniProt Q9Z309); assay: as above
T2 sequence: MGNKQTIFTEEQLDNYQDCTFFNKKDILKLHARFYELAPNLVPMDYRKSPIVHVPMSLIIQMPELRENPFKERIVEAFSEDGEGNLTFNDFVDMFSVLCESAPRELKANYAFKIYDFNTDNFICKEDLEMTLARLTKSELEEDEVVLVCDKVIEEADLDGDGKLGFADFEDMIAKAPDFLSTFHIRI

[4] = biological target: T3, mCherry-tagged mouse Tmc1 (HEK 293) (mouse) (UniProt Q8R4P5); assay: as above
T3 sequence: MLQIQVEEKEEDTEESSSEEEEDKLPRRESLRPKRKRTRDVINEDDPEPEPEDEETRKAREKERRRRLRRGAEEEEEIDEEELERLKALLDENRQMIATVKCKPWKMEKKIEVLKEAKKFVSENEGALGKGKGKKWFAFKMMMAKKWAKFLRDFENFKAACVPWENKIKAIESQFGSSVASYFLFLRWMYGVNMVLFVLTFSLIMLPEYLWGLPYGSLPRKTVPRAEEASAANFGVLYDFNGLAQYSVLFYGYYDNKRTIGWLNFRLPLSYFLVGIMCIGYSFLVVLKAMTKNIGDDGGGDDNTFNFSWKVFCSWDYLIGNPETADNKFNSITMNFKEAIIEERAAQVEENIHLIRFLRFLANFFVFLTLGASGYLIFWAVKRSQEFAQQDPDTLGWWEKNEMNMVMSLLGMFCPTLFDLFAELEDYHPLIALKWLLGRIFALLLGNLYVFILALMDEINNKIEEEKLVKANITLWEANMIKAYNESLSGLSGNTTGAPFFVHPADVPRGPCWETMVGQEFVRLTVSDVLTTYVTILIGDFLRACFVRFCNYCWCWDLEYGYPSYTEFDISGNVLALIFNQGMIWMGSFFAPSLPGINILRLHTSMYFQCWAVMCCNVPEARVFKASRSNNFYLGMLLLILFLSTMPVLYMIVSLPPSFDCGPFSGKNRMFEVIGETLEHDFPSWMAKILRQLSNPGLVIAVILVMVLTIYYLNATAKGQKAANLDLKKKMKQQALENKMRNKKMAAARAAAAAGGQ

[5] = biological target: T4, mCherry-tagged mouse Tmc2 (HEK 293) (mouse) (UniProt Q8R4P4); assay: as above
T4 sequence: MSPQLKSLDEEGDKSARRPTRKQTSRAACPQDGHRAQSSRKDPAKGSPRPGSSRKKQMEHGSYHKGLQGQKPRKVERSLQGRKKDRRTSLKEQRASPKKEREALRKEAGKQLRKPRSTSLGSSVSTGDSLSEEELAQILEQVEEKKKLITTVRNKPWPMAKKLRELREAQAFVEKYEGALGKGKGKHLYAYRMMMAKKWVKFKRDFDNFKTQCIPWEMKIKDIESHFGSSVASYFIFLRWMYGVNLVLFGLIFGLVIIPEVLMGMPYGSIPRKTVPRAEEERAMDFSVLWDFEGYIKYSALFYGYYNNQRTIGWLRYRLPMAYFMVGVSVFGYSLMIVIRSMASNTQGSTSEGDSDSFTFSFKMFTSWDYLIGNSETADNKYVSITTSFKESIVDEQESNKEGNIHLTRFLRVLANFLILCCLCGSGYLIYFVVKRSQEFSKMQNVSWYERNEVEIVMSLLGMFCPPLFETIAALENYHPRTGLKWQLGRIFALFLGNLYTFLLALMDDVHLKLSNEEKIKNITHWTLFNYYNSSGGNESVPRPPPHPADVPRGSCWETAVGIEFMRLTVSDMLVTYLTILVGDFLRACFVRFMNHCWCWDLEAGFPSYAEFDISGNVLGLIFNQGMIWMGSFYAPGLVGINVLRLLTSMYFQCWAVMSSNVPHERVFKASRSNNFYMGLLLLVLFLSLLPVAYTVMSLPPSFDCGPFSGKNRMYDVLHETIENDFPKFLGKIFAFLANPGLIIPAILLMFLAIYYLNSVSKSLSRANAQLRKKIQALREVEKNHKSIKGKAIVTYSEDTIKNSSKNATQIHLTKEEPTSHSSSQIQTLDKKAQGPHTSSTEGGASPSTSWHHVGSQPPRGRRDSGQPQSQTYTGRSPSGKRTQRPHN

[6] = biological target: Piezo2-GFP fusion protein (Pz2-GFP mouse) (mouse) (UniProt Q8CD54); assay: proximity ligation; hair cells of Pz1-tdT/Pz2-GFP mice (P10), stereocilia and cuticular plate membrane, confocal Z-projections
[7] = biological target: T5, Tmc2-AcGFP fusion protein (Tmc2-AcGFP transgenic mouse) (mouse) (UniProt Q8R4P4); assay: co-IP; cochlear tissue lysates of Tmc2-AcGFP:Pz1-tdT and Tmc1-mCherry:Pz2-GFP mice, GFP antibody overnight at 4 C, Dynabeads Protein G, immunoblot with anti-tdTomato or anti-mCherry
T5 sequence: T4 sequence

[8] = biological target: T3, mCherry-tagged mouse Tmc1 (HEK 293) (mouse); assay: co-IP; HEK 293 cells transfected with mCherry-Tmc1 or mCherry-Tmc2 alone, endogenous Pz1 detected with anti-mPz1
[9] = biological target: T4, mCherry-tagged mouse Tmc2 (HEK 293) (mouse); assay: as above

Measured: binding

FLAG-tagged mouse Pz1 (Flag-mPz1) (from UniProt E2JF22 1-2547)
binds: [1] | [2] | [3] | [4] | [5]

Piezo1-tdTomato fusion protein (Pz1-tdT knock-in mouse) (from UniProt E2JF22 1-2547)
binds: [6] | [7]

Pz1 endogenously expressed in HEK 293 cells (from UniProt Q92508 1-2521)
binds: [8] | [9]
